Measured values as given in the supplement of paper PMC10849652.
The other results are listed elsewhere or left out.

By UniProt entry, the sequences of proteins in these tests, tags left out. Where a name states a change or a piece, a line headed by the entry shows the natural chain unless it says otherwise.
UniProt Q96LZ7: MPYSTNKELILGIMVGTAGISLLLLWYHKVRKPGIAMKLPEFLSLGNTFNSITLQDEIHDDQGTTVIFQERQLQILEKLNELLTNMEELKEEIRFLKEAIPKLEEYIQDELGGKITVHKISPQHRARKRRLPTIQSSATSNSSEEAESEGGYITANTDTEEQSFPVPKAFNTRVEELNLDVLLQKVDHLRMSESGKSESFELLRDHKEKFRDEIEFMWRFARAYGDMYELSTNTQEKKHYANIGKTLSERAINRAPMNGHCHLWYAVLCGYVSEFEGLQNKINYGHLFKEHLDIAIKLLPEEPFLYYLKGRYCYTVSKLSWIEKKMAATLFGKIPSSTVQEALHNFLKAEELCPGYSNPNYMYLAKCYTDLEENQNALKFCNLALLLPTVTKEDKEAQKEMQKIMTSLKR
UniProt Q06587: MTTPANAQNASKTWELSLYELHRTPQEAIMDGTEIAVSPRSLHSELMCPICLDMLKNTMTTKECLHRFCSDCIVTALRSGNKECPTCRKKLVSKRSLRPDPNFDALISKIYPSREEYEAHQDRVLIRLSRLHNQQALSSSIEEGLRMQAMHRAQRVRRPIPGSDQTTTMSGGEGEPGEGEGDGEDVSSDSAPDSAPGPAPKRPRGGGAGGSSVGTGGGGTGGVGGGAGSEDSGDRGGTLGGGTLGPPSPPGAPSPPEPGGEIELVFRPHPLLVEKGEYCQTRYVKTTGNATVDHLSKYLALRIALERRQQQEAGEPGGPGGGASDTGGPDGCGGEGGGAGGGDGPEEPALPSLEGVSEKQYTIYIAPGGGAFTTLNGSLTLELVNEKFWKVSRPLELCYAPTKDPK
UniProt Q02161: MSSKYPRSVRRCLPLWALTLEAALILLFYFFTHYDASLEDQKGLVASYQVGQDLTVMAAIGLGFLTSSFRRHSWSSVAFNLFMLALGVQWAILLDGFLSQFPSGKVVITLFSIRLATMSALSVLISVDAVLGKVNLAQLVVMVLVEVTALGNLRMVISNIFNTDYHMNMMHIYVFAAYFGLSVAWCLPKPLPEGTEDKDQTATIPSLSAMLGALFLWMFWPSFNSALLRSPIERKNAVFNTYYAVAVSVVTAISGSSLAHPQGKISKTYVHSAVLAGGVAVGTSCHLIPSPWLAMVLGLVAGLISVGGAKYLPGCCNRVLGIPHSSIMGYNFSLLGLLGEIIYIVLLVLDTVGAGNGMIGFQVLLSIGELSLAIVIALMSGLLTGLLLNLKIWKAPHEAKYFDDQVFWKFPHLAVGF
UniProt Q92546: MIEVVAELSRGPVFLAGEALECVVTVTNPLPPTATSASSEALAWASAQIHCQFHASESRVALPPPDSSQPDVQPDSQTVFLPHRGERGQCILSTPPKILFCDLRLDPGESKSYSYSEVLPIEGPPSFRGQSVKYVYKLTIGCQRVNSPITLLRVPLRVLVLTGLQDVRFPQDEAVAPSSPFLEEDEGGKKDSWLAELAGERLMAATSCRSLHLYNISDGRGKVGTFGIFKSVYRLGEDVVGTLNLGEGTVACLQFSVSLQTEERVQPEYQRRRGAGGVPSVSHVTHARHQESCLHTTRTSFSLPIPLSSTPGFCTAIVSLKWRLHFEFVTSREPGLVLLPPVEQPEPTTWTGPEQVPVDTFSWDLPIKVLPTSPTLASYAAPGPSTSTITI
UniProt O43566: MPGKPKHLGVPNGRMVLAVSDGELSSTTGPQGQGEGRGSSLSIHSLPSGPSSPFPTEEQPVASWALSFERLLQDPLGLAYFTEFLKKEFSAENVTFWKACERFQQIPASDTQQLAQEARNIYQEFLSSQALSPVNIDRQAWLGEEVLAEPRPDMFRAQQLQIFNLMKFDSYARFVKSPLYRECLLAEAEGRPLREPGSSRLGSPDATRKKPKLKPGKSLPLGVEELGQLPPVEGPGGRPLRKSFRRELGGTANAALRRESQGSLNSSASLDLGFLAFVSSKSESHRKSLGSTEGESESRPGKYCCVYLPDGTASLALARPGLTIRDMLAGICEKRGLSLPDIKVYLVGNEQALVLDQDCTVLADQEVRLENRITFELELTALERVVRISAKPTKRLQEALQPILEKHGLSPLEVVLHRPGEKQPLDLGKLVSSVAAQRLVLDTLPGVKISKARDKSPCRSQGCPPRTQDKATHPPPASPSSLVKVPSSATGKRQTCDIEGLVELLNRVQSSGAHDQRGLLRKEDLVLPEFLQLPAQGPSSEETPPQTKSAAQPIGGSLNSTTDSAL
UniProt Q5VTB9: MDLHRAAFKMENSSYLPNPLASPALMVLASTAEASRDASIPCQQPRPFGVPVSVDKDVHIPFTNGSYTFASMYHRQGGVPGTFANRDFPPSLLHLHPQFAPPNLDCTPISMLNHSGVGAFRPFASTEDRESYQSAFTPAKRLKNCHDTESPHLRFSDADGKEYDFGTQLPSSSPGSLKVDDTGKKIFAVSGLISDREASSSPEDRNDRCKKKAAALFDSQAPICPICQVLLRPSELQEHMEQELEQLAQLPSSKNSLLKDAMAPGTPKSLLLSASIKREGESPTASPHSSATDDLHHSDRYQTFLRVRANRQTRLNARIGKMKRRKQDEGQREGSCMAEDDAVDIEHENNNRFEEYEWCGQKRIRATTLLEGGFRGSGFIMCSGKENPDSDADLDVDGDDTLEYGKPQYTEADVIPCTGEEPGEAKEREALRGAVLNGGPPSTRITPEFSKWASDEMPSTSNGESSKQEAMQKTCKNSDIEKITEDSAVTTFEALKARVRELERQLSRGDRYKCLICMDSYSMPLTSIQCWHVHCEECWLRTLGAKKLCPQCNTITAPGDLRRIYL
UniProt Q6ZNA4: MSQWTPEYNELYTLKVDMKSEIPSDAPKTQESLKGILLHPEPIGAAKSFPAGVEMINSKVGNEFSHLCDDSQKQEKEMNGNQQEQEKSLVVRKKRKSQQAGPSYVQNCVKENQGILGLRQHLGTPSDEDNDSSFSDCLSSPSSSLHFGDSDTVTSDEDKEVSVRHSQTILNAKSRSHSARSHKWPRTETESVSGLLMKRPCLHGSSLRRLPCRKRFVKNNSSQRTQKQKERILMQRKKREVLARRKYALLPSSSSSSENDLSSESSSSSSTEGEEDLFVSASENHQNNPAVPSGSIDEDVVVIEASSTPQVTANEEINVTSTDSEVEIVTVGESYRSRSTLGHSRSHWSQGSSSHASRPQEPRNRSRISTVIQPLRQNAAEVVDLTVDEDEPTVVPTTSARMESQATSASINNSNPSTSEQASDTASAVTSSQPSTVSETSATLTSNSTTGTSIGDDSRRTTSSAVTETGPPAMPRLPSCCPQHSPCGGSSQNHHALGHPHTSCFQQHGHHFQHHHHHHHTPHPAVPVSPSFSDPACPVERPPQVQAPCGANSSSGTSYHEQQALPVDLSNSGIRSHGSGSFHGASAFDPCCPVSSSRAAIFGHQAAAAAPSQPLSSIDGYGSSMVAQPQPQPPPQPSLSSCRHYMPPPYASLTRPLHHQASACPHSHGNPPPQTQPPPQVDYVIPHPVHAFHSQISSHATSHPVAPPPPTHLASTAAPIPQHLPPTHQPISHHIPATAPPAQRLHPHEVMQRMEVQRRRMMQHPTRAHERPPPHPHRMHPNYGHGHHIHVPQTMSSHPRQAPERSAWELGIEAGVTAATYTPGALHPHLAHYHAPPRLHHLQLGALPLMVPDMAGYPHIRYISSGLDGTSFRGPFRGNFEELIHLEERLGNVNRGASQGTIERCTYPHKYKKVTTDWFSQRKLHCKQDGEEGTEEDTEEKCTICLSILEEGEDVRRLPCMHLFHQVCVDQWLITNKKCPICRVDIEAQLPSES
UniProt Q9P2R6: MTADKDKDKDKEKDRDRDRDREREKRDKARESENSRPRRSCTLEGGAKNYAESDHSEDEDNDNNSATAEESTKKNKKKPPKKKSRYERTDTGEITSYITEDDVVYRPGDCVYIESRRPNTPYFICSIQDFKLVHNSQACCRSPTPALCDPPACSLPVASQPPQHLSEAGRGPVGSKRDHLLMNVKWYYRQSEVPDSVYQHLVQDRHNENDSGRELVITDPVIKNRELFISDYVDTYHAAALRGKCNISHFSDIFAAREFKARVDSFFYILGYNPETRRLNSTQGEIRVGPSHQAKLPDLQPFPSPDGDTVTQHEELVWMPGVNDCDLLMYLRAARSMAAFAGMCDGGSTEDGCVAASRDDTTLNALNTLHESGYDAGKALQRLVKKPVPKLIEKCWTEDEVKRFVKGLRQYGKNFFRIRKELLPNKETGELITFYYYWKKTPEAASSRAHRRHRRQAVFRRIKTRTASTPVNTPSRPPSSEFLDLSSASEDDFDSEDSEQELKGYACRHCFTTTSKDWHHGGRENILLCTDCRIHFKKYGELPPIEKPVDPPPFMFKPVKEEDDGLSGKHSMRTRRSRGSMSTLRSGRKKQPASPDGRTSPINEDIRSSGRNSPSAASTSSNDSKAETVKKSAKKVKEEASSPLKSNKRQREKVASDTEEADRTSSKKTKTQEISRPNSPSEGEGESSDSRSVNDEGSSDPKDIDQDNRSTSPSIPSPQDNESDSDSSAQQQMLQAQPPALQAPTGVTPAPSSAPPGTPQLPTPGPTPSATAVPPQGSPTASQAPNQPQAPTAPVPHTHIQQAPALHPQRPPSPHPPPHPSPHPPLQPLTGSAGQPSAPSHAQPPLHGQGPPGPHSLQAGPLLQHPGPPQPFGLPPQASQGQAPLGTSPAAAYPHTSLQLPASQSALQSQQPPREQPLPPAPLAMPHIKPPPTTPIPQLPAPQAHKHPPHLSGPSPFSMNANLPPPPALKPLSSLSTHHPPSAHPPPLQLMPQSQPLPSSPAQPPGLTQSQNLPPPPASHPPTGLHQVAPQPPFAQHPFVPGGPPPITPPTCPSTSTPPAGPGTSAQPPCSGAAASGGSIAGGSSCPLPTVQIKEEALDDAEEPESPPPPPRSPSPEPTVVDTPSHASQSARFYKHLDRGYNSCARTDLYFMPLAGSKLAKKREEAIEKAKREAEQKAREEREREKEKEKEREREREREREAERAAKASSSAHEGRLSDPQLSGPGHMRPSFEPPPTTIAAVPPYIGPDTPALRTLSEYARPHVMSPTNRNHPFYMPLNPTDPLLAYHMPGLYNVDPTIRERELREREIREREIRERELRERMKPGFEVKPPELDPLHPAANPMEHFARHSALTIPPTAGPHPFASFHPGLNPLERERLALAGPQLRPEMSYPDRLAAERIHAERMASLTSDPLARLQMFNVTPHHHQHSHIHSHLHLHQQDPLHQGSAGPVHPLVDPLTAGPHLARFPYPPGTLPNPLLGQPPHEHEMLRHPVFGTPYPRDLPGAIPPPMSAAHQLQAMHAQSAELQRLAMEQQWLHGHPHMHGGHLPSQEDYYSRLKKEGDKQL
UniProt Q9Y4L5, whole entry, looked up: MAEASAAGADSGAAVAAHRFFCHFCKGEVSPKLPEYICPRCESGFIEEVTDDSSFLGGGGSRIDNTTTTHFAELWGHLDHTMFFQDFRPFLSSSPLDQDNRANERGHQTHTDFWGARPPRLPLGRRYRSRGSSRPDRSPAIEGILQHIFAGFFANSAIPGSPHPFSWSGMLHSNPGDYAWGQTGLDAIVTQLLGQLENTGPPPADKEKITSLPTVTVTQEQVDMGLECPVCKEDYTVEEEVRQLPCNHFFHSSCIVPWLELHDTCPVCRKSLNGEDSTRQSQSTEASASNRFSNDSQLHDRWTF
UniProt Q8NCN4: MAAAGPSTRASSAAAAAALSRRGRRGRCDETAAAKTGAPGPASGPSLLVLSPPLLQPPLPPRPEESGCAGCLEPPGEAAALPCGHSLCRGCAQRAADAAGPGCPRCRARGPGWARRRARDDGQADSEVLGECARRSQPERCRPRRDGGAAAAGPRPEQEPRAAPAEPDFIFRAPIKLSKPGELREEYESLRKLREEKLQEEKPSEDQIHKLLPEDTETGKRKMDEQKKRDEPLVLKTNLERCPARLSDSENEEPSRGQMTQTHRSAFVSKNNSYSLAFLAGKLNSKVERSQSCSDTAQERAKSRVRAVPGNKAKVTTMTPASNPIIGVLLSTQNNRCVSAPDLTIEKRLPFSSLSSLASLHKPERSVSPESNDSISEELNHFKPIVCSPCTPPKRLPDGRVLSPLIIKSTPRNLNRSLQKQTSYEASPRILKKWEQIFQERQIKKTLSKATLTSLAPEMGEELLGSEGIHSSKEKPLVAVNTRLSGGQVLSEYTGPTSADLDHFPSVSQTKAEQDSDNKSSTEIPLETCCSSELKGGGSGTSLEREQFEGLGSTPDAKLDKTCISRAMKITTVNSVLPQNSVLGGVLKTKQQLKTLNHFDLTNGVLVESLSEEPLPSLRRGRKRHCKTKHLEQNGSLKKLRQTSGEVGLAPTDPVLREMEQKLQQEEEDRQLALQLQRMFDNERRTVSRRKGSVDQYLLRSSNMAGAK
UniProt O14593: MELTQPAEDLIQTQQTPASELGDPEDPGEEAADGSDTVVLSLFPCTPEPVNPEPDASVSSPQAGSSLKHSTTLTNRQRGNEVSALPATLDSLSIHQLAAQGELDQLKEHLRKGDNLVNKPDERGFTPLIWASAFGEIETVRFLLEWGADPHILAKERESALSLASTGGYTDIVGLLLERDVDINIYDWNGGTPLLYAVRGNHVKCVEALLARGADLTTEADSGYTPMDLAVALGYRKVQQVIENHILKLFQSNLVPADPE

Columns and labels:
Assay in all cases: log2 fold change, soluble protein after heating vs DMSO (PISA); higher = thermal stabilisation; K562 cells, 10 uM, 30 min; active = over 0.2 and 3.5 SD of the protein, either way, in both replicates (recomputed)
defactinib = compound: CNC(=O)c1ccc(Nc2ncc(C(F)(F)F)c(NCc3nccnc3N(C)S(C)(=O)=O)n2)cc1 [defactinib]
Procedure, shortened: (§1)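 Thermal stability values are relative to control samples and come from duplicates. They are expressed as log2 fold changes. For measurement, K562 cells (2×10^6 cells/mL) received 10 μM compound for 30 min, and aliquots were heated for 3 min over 48°C-58°C, pooled, and extracted at 4°C in PBS with 0.5% NP-40. Soluble protein, the supernatant after 21,000xg for 90 min, was quantified by TMTpro 16plex LC-MS/MS with equalised channel sums.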

[1] = compound: COC(=O)[C@H](CCSC)NC(=O)C1=C(C=C(C=C1)NC[C@H](CS)N)C2=CC=CC=C2
Procedure, shortened: as §1

[2] = compound: COC1=CC=C(C=C1)CN2C=CC3=C2C=C(C=C3)C(=O)NO
Procedure, shortened: as §1

alisertib = compound: COc1cc(Nc2ncc3c(n2)-c2ccc(Cl)cc2C(c2c(F)cccc2OC)=NC3)ccc1C(=O)O [alisertib]
Procedure, shortened: as §1

gefitinib = compound: COc1cc2ncnc(Nc3ccc(F)c(Cl)c3)c2cc1OCCCN1CCOCC1 [gefitinib]
Procedure, shortened: as §1

[3] = compound: COc1cccc2cc(-c3nc([C@H]4CC[C@H](C(=O)O)CC4)n4ncnc(N)c34)[nH]c12
Procedure, shortened: as §1

Tubastatin A = compound: CN1CCc2c(c3ccccc3n2Cc2ccc(C(=O)NO)cc2)C1 [Tubastatin A]
Procedure, shortened: as §1

[4] = compound: CNC(=O)C1=CC=CC=C1NC2=NC(=NC=C2Cl)NC3=C(C=C(C=C3)N4CCOCC4)OC
Procedure, shortened: as §1

rucaparib = compound: CNCc1ccc(-c2[nH]c3cc(F)cc4c3c2CCNC4=O)cc1 [rucaparib]
Procedure, shortened: as §1

encorafenib = compound: COC(=O)N[C@@H](C)CNc1nccc(-c2cn(C(C)C)nc2-c2cc(Cl)cc(NS(C)(=O)=O)c2F)n1 [encorafenib]
Procedure, shortened: as §1

zotarolimus = compound: CO[C@H]1C[C@@H]2CC[C@@H](C)[C@@](O)(O2)C(=O)C(=O)N2CCCC[C@H]2C(=O)O[C@H]([C@H](C)C[C@@H]2CC[C@H](n3cnnn3)[C@H](OC)C2)CC(=O)[C@H](C)/C=C(\C)[C@@H](O)[C@@H](OC)C(=O)[C@H](C)C[C@H](C)/C=C/C=C/C=C/1C [zotarolimus]
Procedure, shortened: as §1

[5] = compound: COc1cc2nc(-c3cc(F)ccc3O)nc(N[C@@H]3CNC[C@H]3C(C)(C)O)c2cc1OC
Procedure, shortened: as §1

lapatinib = compound: CS(=O)(=O)CCNCc1ccc(-c2ccc3ncnc(Nc4ccc(OCc5cccc(F)c5)c(Cl)c4)c3c2)o1 [lapatinib]
Procedure, shortened: as §1

pictilisib = compound: CS(=O)(=O)N1CCN(Cc2cc3nc(-c4cccc5[nH]ncc45)nc(N4CCOCC4)c3s2)CC1 [pictilisib]
Procedure, shortened: as §1

sotrastaurin = compound: CN1CCN(c2nc(C3=C(c4c[nH]c5ccccc45)C(=O)NC3=O)c3ccccc3n2)CC1 [sotrastaurin]
Procedure, shortened: as §1

filanesib = compound: CON(C)C(=O)N1N=C(c2cc(F)ccc2F)S[C@@]1(CCCN)c1ccccc1 [filanesib]
Procedure, shortened: as §1

idasanutlin = compound: COc1cc(C(=O)O)ccc1NC(=O)[C@@H]1N[C@@H](CC(C)(C)C)[C@](C#N)(c2ccc(Cl)cc2F)[C@H]1c1cccc(Cl)c1F [idasanutlin]
Procedure, shortened: as §1

alvocidib = compound: CN1CC[C@H](c2c(O)cc(O)c3c(=O)cc(-c4ccccc4Cl)oc23)[C@H](O)C1 [alvocidib]
Procedure, shortened: as §1

saracatinib = compound: CN1CCN(CCOc2cc(OC3CCOCC3)c3c(Nc4c(Cl)ccc5c4OCO5)ncnc3c2)CC1 [saracatinib]
Procedure, shortened: as §1

[6] = compound: CNc1nc(-c2ccc3c(N)n[nH]c3c2)cc(N2C[C@@H](C(=O)NC3CCCCC3)CC[C@H]2C)n1
Procedure, shortened: as §1

Measured: log2 fold change

RMDN2 isoform 2 (UniProt Q96LZ7)
inactive: defactinib -0.218 | [1] -0.206 | [2] 0.008 | alisertib 0.389 | gefitinib -0.418 | [3] 0.191

RBMY1E (UniProt A6NEQ0)
inactive: Tubastatin A 0.016 | [4] -0.049 | rucaparib -0.055 | encorafenib 0.182 | [2] 0.078 | zotarolimus 0.083 | alisertib -0.035 | gefitinib -0.07 | [3] 0.126 | lapatinib 0.044 | pictilisib 0.015
active: [5] -0.476

RBM48 isoform 2 (UniProt Q5RL73)
inactive: sotrastaurin -0.001 | Tubastatin A 0.016 | [4] -0.065 | [2] -0.046 | filanesib -0.049 | zotarolimus -0.076 | idasanutlin 0.04 | [5] -0.046 | gefitinib -0.024 | lapatinib 0.011 | pictilisib -0.083

RNASE4 (UniProt P34096)
inactive: sotrastaurin 0.071 | alvocidib 0.008 | Tubastatin A 0.003 | [4] -0.058 | defactinib 0.066 | rucaparib -0.017 | encorafenib 0.018 | [1] 0.102 | [2] -0.021 | filanesib -0.072 | zotarolimus 0.033 | idasanutlin -0.03 | alisertib 0.022 | [5] 0.045 | gefitinib -0.149 | [3] -0.241 | lapatinib -0.011 | pictilisib -0.103

RIMKLB (UniProt Q9ULI2)
inactive: sotrastaurin -0.001 | [4] -0.143 | rucaparib 0.075 | encorafenib -0.02 | [2] -0.14 | filanesib -0.137 | alisertib 0.743 | [5] -0.025 | gefitinib 0.02 | [3] -0.001 | lapatinib -0.022

RING1 (UniProt Q06587)
inactive: sotrastaurin -0.086 | alvocidib -0.25 | Tubastatin A 0.072 | [4] 0.075 | defactinib -0.226 | rucaparib 0.027 | encorafenib 0.08 | [1] -0.086 | [2] 0.058 | filanesib -0.004 | zotarolimus 0.067 | idasanutlin 0.189 | alisertib 0 | [5] -0.021 | gefitinib 0.026 | [3] 0.033 | lapatinib 0.014 | pictilisib -0.074

RNF11 (UniProt Q9Y3C5)
inactive: rucaparib -0.022 | encorafenib -0.043 | [2] -0.168

RNASEL (UniProt Q05823)
inactive: alisertib -0.179 | [3] -0.33 | pictilisib 0.069

RGN (UniProt Q15493)
inactive: sotrastaurin 0.022 | Tubastatin A -0.079 | defactinib 0.137 | rucaparib -0.151 | encorafenib -0.031 | [1] -0.027 | filanesib 0.098 | idasanutlin 0.064 | [5] 0.114 | gefitinib -0.041 | lapatinib -0.158

RC3H2 (UniProt Q9HBD1)
inactive: Tubastatin A -0.263 | [5] -0.144 | lapatinib 0.006 | pictilisib -0.064

RHD (UniProt Q02161)
inactive: alvocidib 0.018 | Tubastatin A -0.081 | [4] 0.064 | [2] 0.078 | zotarolimus -0.071 | idasanutlin -0.143 | [5] -0.113 | gefitinib -0.125 | lapatinib 0.021

RFX5 (UniProt P48382)
inactive: sotrastaurin -0.128 | [4] -0.109 | [2] -0.034 | filanesib 0.101 | idasanutlin 0.042 | [5] 0.003 | gefitinib 0.092 | lapatinib -0.102 | pictilisib 0.062

REX1BD (UniProt Q96EN9)
inactive: alvocidib -0.498 | zotarolimus -0.194

RNF170 (UniProt Q96K19)
inactive: saracatinib 0.257 | alvocidib 0.052 | defactinib -0.166 | rucaparib -0.028 | [6] 0.037 | encorafenib 0.067 | [1] -0.186 | [2] 0.048 | zotarolimus 0.084 | idasanutlin 0.019 | alisertib 0.101 | [5] -0.107 | gefitinib 0.18 | [3] 0.125 | lapatinib 0.027 | pictilisib -0.015

RGP1 (UniProt Q92546)
inactive: sotrastaurin 0.056 | alvocidib 0.071 | Tubastatin A -0.056 | [4] -0.024 | defactinib -0.001 | [1] 0.107 | filanesib -0.314 | zotarolimus 0.011 | idasanutlin 0.069 | alisertib 0.095 | gefitinib 0.019 | [3] 0.04

RGS14 (UniProt O43566)
inactive: alvocidib 0.302 | Tubastatin A 0.021 | [4] -0.111 | defactinib 0.118 | rucaparib 0.009 | encorafenib -0.336 | [1] 0.11 | zotarolimus -0.064 | idasanutlin 0.114 | alisertib -0.289 | gefitinib -0.01 | [3] 0.101 | pictilisib -0.004

RCL1 (UniProt Q5VZU2)
inactive: saracatinib -0.291 | Tubastatin A 0.274 | [6] 0.017 | idasanutlin -0.096

RNF220 isoform 3 (UniProt Q5VTB9)
inactive: [4] -0.067 | idasanutlin 0.073 | [5] -0.153 | lapatinib 0.261

RNF111 isoform 3 (UniProt Q6ZNA4)
inactive: [4] -0.151 | [2] -0.368 | gefitinib 0.016 | pictilisib -0.079

RNF130 (UniProt Q86XS8)
inactive: alvocidib -0.121 | [4] 0.019 | rucaparib -0.192 | encorafenib -0.022 | [2] -0.106 | zotarolimus 0.026 | alisertib 0.001 | [5] 0.155 | [3] 0.121 | lapatinib -0.089

RERE (UniProt Q9P2R6)
inactive: sotrastaurin -0.059 | [4] -0.031 | [2] -0.23 | filanesib 0.018 | alisertib -0.29 | gefitinib 0.012 | [3] -0.064

Two successive entries out of the list so far, quoted:
RIMKLB (UniProt Q9ULI2)
inactive: sotrastaurin -0.001 | [4] -0.143 | rucaparib 0.075 | encorafenib -0.02 | [2] -0.14 | filanesib -0.137 | alisertib 0.743 | [5] -0.025 | gefitinib 0.02 | [3] -0.001 | lapatinib -0.022

RING1 (UniProt Q06587)
inactive: sotrastaurin -0.086 | alvocidib -0.25 | Tubastatin A 0.072 | [4] 0.075 | defactinib -0.226 | rucaparib 0.027 | encorafenib 0.08 | [1] -0.086 | [2] 0.058 | filanesib -0.004 | zotarolimus 0.067 | idasanutlin 0.189 | alisertib 0 | [5] -0.021 | gefitinib 0.026 | [3] 0.033 | lapatinib 0.014 | pictilisib -0.074

Later entries

RIOX1 (UniProt Q9H6W3)
inactive: rucaparib 0.493 | encorafenib 0.157 | pictilisib -0.07

RIPOR1 isoform 4 (UniProt Q6ZS17)
inactive: Tubastatin A 0.143 | [2] -0.293

RNF115 (UniProt Q9Y4L5)
inactive: gefitinib -0.053

RNF169 (UniProt Q8NCN4)
inactive: saracatinib 0.086 | alvocidib 0.014 | Tubastatin A 0.098 | [6] -0.088 | zotarolimus 0.044 | [5] -0.063 | lapatinib -0.038 | pictilisib -0.054

RFXANK (UniProt O14593)
inactive: pictilisib -0.175

RHBDD2 isoform 2 (UniProt Q6NTF9)
inactive: saracatinib 0.023 | alvocidib 0.071 | [4] -0.028 | rucaparib -0.094 | [6] -0.101 | encorafenib -0.048 | [2] 0.076 | zotarolimus -0.083 | idasanutlin -0.064 | alisertib 0.116 | gefitinib -0.168 | [3] -0.043 | pictilisib 0.149

RNASE7 (UniProt Q9H1E1)
inactive: idasanutlin 0.575

RNF24 isoform 2 (UniProt Q9Y225)
inactive: saracatinib -0.123 | [4] -0.031 | defactinib -0.098 | rucaparib 0.097 | [6] -0.019 | encorafenib 0.198 | [1] 0.109 | [2] -0.05 | [5] -0.02 | gefitinib -0.005 | lapatinib -0.043 | pictilisib 0.06

RBP1 isoform 3 (UniProt P09455)
inactive: saracatinib 0.178 | [6] -0.009 | pictilisib -0.309

RHOXF2B (UniProt P0C7M4)
inactive: sotrastaurin 0.419 | filanesib -0.259 | idasanutlin -0.195 | [5] -0.165 | lapatinib -0.077

RNF139 (UniProt Q8WU17)
inactive: sotrastaurin 0.079 | Tubastatin A 0.062 | [4] 0.063 | defactinib -0.04 | rucaparib -0.064 | encorafenib 0.054 | [1] 0.04 | [2] 0.013 | filanesib -0.043 | alisertib -0.001 | gefitinib -0.011 | [3] 0.176 | pictilisib -0.039

RNF185 (UniProt Q96GF1)
inactive: Tubastatin A 0.011 | [4] 0.001 | defactinib -0.023 | rucaparib 0.006 | encorafenib -0.094 | [1] 0.125 | zotarolimus 0.117 | idasanutlin -0.143 | alisertib -0.145 | [5] -0.175 | gefitinib 0.007 | [3] -0.016 | lapatinib -0.111 | pictilisib 0.076
